The structures given here were assigned with low confidence; some may be wrong.
Target: CFTR (Homo sapiens, UniProt P13569, DEL508-508)
Experiment: HBE2 assay: Ussing chamber assay of CFTR-mediated short-circuit currents
Conditions: F508del/MF-HBE cells, 18-24 hours, 20% human serum; for HBE2 Activity at 3 μM (%): 3 μM corrector; for HBE2 Activity at 3 μM (%) / HBE2 Max activity (%): with 44 nM potentiator; for EC50: read-out: HBE2 EC50, corrector at a range of concentrations with 44 nM potentiator

Protein sequences, listed by entry. Tags and fused reporters are not part of them. Chains listed by the source or under a name are the forms on record and can include a tag or linker.
UniProt P13569, with tags, fused parts or gaps DEL508-508: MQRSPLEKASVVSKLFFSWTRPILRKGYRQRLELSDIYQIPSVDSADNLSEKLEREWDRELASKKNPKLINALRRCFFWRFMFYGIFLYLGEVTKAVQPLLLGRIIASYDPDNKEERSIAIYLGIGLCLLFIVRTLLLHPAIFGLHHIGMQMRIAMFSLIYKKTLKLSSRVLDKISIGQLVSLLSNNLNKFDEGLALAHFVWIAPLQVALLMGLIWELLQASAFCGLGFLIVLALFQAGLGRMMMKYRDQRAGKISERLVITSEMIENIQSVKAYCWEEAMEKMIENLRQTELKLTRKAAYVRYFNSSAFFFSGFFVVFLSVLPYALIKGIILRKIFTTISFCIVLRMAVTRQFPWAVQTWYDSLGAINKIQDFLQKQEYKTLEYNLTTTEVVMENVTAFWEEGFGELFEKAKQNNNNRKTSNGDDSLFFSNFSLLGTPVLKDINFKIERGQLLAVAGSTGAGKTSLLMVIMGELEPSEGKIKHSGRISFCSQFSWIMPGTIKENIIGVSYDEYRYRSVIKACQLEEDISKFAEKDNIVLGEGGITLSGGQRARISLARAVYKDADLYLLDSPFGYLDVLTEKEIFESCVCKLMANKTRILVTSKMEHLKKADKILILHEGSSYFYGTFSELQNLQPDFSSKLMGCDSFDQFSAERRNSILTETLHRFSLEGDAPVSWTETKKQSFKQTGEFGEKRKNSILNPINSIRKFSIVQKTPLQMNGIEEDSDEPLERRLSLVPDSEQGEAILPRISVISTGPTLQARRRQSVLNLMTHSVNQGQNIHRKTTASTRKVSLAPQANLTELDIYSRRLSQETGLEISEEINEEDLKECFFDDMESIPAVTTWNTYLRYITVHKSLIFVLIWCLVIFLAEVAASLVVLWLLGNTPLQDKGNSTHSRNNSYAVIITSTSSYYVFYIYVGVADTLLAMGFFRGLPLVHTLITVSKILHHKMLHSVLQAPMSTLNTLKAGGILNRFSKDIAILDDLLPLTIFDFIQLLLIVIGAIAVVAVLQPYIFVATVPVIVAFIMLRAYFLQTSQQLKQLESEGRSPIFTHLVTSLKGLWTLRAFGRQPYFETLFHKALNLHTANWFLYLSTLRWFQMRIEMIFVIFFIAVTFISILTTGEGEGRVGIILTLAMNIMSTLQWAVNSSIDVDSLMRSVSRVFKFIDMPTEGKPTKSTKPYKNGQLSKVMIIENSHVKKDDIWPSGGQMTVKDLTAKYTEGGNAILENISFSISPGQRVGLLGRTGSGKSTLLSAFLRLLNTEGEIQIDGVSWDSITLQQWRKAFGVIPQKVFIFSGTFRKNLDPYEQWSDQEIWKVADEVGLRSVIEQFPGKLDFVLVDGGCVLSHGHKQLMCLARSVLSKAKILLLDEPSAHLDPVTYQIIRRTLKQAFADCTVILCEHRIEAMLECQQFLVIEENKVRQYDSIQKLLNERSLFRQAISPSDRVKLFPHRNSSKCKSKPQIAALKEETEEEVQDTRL

Structure (SMILES) | HBE2 Activity at 3 μM (%) | HBE2 Max activity (%) | EC50
Cc1cccc(C)c1-c1cc2nc(n1)NS(=O)(=O)c1cccc(c1)C(=O)N(Cc1nccc(N3CCC[C@H]3C(C)C)n1)[C@H](CCC(C)C)CO2 | +++ (+++ is >60+) | +++ (+++ is >60+) | 1000 to 3000 nM
Cc1cccc(C)c1-c1cc2nc(n1)NS(=O)(=O)c1cccc(c1)C(=O)N(Cc1nccc(N3CC[C@H]3C)n1)[C@H](CCC(C)C)CO2 | +++ (+++ is >60+) | +++ (+++ is >60+) | < 1000 nM
COC[C@@H]1CCN1c1ccnc(CN2C(=O)c3cccc(c3)S(=O)(=O)Nc3nc(cc(-c4c(C)cccc4C)n3)OC[C@H]2CCC(C)C)n1 | +++ (+++ is >60+) | +++ (+++ is >60+) | < 1000 nM

Source: patent US20240150377A1, “MODULATORS OF CYSTIC FIBROSIS TRANSMEMBRANE CONDUCTANCE REGULATOR” (VERTEX PHARMACEUTICALS INCORPORATED, priority 2020, published 2024)
